PubChem BioAssay AID1259405, NCATS | 2018

Screen: 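Silenced genes that increase secreted GFP made by CHO cells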 (primary screen)
Cells: Chinese hamster CHO-K1 ovary cells with stable secreted eGFP expression
Knock-down reagent: single siRNA against mouse genes, 0.8 pmol siRNA per well (2 µl of 400 nM stock)
Duration: 3 days
Detection: 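Per-well intracellular GFP measured by laser scanning cytometry, plus viability from ATP luminescence, each relative to plate median of non-targeting control wells, in %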
Scale: GFP, % of control: higher = more GFP per well, higher productivity; viability (ATP), % of control: higher = more viable cells (more ATP)
Hit rule: 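Called active when intracellular GFP, relative to negative control, is at or above 120%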
The whole screen tested about 50,000 reagents; this is a random part of them. About 4,000 of all reagents (8%) count as active. 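Mouse siRNA library applied to hamster cells; one well for each siRNA.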 Reagents against one gene are numbered here.

After knock-down of Zfp64 #1, the record shows GFP, % of control 75.1; viability (ATP), % of control 48.9; inactive.
Silencing of Zfp64 #2 gave: GFP, % of control 95.9; viability (ATP), % of control 82.1; inactive.
Vps13b #1 showed GFP, % of control 69.7; viability (ATP), % of control 52.4; inactive.
Vps13b #2 scored GFP, % of control 89.2; viability (ATP), % of control 75.9; inactive.
Silencing of Vps13b #3 gave: GFP, % of control 112; viability (ATP), % of control 99.7; inactive.
After knock-down of Or4p21 #1 the results were GFP, % of control 58.4; viability (ATP), % of control 25.2; inactive.
Against Or4p21 #2, the values are GFP, % of control 108; viability (ATP), % of control 84; inactive.
After knock-down of Or4p21 #3 the results were GFP, % of control 80.8; viability (ATP), % of control 110; inactive.
Tmed4 #1 showed GFP, % of control 133; viability (ATP), % of control 95.7; active.
After knock-down of Tmed4 #2, the screen gave GFP, % of control 217; viability (ATP), % of control 152; active.
Tmed4 #3 gave GFP, % of control 72.3; viability (ATP), % of control 94.7; inactive.
Knock-down of Psmd13 #1 gave: GFP, % of control 109; viability (ATP), % of control 70.2; inactive.
Psmd13 #2 gave GFP, % of control 109; viability (ATP), % of control 64; inactive.
Depletion of Psmd13 #3 came out at: GFP, % of control 63.9; viability (ATP), % of control 56.9; inactive.
Silencing of Ccna2 #1 gave: GFP, % of control 83.8; viability (ATP), % of control 85; inactive.
Silencing of Ccna2 #2 came out at: GFP, % of control 94.4; viability (ATP), % of control 93.3; inactive.
Silencing of Prf1 #1 resulted in: GFP, % of control 77; viability (ATP), % of control 70.1; inactive.
With knock-down of Prf1 #2, the record shows GFP, % of control 100; viability (ATP), % of control 61.2; inactive.
Knock-down of Prf1 #3 gave: GFP, % of control 36.8; viability (ATP), % of control 53.4; inactive.
Against Or2ag17 #1, the values are GFP, % of control 57.6; viability (ATP), % of control 82.1; inactive.
Or2ag17 #2 showed GFP, % of control 91.9; viability (ATP), % of control 64.8; inactive.
Or2ag17 #3 showed GFP, % of control 71.6; viability (ATP), % of control 82.5; inactive.
Silencing of Siglecf #1 gave: GFP, % of control 63.2; viability (ATP), % of control 53.9; inactive.
After knock-down of Siglecf #2 the results were GFP, % of control 105; viability (ATP), % of control 73.5; inactive.
Silencing of Cdyl2 #1 came out at: GFP, % of control 45.7; viability (ATP), % of control 69.9; inactive.
Cdyl2 #2 showed GFP, % of control 69.7; viability (ATP), % of control 88.2; inactive.
Knock-down of Cdyl2 #3 resulted in: GFP, % of control 57.5; viability (ATP), % of control 80.2; inactive.
Noto #1 gave GFP, % of control 102; viability (ATP), % of control 59.2; inactive.
Noto #2 showed GFP, % of control 56.6; viability (ATP), % of control 86.7; inactive.
Pcnx1 #1 scored GFP, % of control 200; viability (ATP), % of control 69.8; active.
Silencing of Pcnx1 #2 resulted in: GFP, % of control 67.7; viability (ATP), % of control 77; inactive.
Against Pcnx1 #3, the entry reads GFP, % of control 64.1; viability (ATP), % of control 81.5; inactive.
Depletion of Eppk1 #1 gave: GFP, % of control 68.1; viability (ATP), % of control 83.3; inactive.
Eppk1 #2 scored GFP, % of control 104; viability (ATP), % of control 94.6; inactive.
Silencing of Eppk1 #3 gave: GFP, % of control 75.2; viability (ATP), % of control 92.1; inactive.
Sobp #1 scored GFP, % of control 116; viability (ATP), % of control 71.7; inactive.
With knock-down of Sobp #2, the screen gave GFP, % of control 77.2; viability (ATP), % of control 90.6; inactive.
With knock-down of Sobp #3, the record shows GFP, % of control 152; viability (ATP), % of control 131; active.
Gpr20 #1 showed GFP, % of control 105; viability (ATP), % of control 82.3; inactive.
Silencing of Gpr20 #2 gave: GFP, % of control 76.3; viability (ATP), % of control 62.3; inactive.
With knock-down of Gpr20 #3, the record shows GFP, % of control 98.9; viability (ATP), % of control 86.1; inactive.

In a second layout: results already given
target	reagent no.	GFP, % of control	viability (ATP), % of control	call
Vps13b	2	89.2	75.9	inactive
Vps13b	3	112	99.7	inactive
Or4p21	1	58.4	25.2	inactive
Or4p21	2	108	84	inactive
